Test results: publication PMC8406723
No constants are given. Whether binding was seen depends on the method and setting. In cells and extracts the contact can be indirect. Some results given as binding are weak or reduced against the parent protein; the word gives no strength.

Protein sequences, listed by entry. Tags and fused reporters are not part of them.
UniProt P11166: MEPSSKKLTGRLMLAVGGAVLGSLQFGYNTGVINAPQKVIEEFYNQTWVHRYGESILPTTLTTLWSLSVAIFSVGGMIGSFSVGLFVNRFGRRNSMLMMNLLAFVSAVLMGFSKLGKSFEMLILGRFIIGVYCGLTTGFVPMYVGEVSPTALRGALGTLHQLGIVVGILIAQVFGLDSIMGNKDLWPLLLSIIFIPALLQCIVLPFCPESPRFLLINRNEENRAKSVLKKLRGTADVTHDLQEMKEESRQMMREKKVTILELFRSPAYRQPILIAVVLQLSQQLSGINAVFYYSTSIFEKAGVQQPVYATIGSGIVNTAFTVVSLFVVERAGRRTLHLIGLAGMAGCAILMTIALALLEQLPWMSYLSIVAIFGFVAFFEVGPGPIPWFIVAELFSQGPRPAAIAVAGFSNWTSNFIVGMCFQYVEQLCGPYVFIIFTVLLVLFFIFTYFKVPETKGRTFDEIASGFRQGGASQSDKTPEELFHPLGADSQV
UniProt P63279: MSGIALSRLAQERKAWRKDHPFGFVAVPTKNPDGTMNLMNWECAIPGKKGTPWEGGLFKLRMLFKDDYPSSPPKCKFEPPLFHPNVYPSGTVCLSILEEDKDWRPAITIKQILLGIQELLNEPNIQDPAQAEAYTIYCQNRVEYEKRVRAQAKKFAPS

Biological target: Flag-GLUT1 (Glucose transporter type 1) (UniProt P11166)
Test: co-IP; anti-Flag (GLUT1) antibody on protein A/G magnetic beads; lysates of HNE2 and CNE2 cells transfected with Flag-GLUT1 vector; GLB+ lysis buffer (150 mM NaCl, 10 mM Tris-HCl pH 7.5, 0.5% Triton X-100, 10 mM EDTA pH 8.0), 4 °C overnight; western blotting with anti-SUMO2 and anti-UBC9

binding: binds
Substance: Ubiquitin-Conjugating Enzyme 9 (UBC9), endogenous (from UniProt P63279 1-158)
